Measured values as given in US20200188361A1, “USE OF MITOCHONDRIAL ACTIVITY INHIBITORS FOR THE TREATMENT OF POOR PROGNOSIS ACUTE MYELOID LEUKEMIA” (UNIVERSITE DE MONTREAL, priority 2016, published 2020).
Where a name gives a salt, the structure may show the parent alone.

Experiments:
[1] = test system: HOX-high AML patient cells; assay: Primary chemical screen of 60 compounds, cell dose-response viability assay (CellTiterGlo, 6 days); type: cell-based, human
Procedure: (§1) frozen AML mono-nucleated cells were thawed at 37° C. in Iscove's modified Dulbecco's medium (IMDM) containing 20% FBS and DNase I (100 μg/mL).
(§2) All powders were dissolved in DMSO and diluted in culture medium immediately before use. Final DMSO concentration in all conditions was 0.1%. The 60 compounds were purchased from various suppliers including Santa Cruz, Selleckchem, Calbiochem, AdooQ Bioscience, Cayman chemical and Synkinase.
(§3) Patient cells were seeded in 384-well plates at a density of 5,000 cells in 50 μL per well. In the initial screen, compounds were added to seeded cells in serial dilutions (10 dilutions, 1:3, starting from 10 μM or 20 μM), in duplicates. Cells treated with 0.1% DMSO without additional compound were used as negative controls. Viable cell counts per well were evaluated after 6 days of culture using the CellTiterGlo® assay (Promega®) according to the manufacturer's instruction.
(§4) Using high expression of HOXA9 and HOXA10 as a surrogate for the detection of HOX-network-high patient samples, the survival of HOX-high versus HOX-med/low specimens contacted with 60 inhibitors targeting receptor tyrosine kinases (RTK), members of the RAS and PI3K pathways, was assessed (FIG. 2A, Table 4).

[2] = test system: HOX-med/low AML patient cells; assay: as above; type: cell-based; settings: Homo sapiens, 144 h, mean over HOX-med/low patient specimens, 6 days culture, top concentration 10 μM or 20 μM
Procedure: as §1, §2, §3, §4

With `Cc1ccc(NC(=O)c2ccc(CN3CCN(C)CC3)cc2)cc1Nc1nccc(-c2cccnc2)n1` [Imatinib Mesylate] the EC50 ([1]; Homo sapiens, 144 h, primary screen, mean over HOX-high patient specimens, 6 days culture, top concentration 10 μM or 20 μM) was 7.93 µM, the “FOLD CHANGE High/Med-low” value ([1]; ratio of mean EC50 HOX-high to mean EC50 HOX-med/low) was 1.1 and the EC50 [2] was 7.28 µM.
